According to publication PMC11137987:
These are yes or no findings as the source states them, for the method shown. Binding seen in cells or lysates may run through a third protein. Some binding calls cover weakened binding; strength is not graded here.

Sequences of proteins named here, by UniProt entry; tags and fusion partners are left off.
UniProt P04150: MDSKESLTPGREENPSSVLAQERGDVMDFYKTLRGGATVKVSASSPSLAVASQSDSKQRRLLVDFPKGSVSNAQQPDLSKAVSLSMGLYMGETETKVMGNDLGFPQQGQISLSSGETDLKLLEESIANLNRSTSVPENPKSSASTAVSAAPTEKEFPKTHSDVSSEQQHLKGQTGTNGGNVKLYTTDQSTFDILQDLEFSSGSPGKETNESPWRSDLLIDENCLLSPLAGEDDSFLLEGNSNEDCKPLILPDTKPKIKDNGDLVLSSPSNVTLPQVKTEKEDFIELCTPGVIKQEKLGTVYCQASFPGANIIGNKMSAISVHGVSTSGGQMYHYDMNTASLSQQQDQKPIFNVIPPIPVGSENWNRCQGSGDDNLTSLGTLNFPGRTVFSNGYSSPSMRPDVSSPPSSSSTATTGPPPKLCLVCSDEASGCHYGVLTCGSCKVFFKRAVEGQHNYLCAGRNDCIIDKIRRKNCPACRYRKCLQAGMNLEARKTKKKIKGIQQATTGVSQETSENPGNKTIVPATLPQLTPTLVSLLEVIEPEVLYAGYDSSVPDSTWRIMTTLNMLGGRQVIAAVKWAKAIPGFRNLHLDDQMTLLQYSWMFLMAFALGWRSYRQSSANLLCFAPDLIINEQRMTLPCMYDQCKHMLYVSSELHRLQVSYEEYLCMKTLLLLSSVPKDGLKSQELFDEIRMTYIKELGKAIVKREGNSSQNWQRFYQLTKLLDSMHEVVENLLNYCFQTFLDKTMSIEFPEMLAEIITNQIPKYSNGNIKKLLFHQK
UniProt Q04206: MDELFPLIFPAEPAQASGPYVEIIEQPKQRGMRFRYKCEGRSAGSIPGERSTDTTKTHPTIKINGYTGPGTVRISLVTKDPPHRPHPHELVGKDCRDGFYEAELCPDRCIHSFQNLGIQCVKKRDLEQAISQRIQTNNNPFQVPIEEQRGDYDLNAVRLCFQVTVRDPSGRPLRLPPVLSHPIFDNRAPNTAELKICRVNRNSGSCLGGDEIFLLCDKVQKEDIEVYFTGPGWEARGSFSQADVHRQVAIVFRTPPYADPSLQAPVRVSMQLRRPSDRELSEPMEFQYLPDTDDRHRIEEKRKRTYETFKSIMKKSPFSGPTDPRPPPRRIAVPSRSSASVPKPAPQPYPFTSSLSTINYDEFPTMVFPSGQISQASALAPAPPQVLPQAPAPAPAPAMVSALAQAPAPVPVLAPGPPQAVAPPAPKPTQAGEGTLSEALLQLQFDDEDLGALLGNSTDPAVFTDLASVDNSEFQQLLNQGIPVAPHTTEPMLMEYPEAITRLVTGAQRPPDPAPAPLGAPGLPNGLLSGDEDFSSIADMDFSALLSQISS
UniProt P05412: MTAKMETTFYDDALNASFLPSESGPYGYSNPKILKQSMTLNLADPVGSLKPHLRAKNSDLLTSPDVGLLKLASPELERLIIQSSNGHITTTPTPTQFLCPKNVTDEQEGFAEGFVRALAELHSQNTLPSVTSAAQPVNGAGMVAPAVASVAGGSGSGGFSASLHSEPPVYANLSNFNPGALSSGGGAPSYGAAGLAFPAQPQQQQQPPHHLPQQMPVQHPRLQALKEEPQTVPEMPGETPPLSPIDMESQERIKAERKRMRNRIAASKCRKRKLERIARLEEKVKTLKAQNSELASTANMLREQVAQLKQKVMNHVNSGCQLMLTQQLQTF

Target: glucocorticoid receptor (human (endogenous in primary ASMC)) (UniProt P04150)
Assay: co-IP; endogenous proteins in lysates of primary ASMC from COPD responders and non-responders to ICS, without or with dexamethasone (1 x 10^-8 M); non-denaturing lysis buffer with 0.1% SDS, 1% NP40 and 0.5% deoxycholate; 100 µg protein with primary antibody overnight at 4 °C, sepharose beads 1 h; detection by Western blot

| binding | Substance |
| --- | --- |
| binds | NF-κB p65 (from UniProt Q04206 1-551) |
| binds | c-Jun (from UniProt P05412 1-331) |
